Laboratory results taken from article PMC9133052.
These are yes or no findings as the source states them, for the method shown. Binding can be weak; no strength is given. For part of these data: Where a sequence is shown, tags or fusion partners need not be part of it. For part of these data: Binding seen in cells or lysates may run through a third protein. Blank lines part the entries; values can stand above or below the molecule they belong to.

Experiments:
His-tagged Ythdf2 = biological target: T1, His-tagged Ythdf2 (UniProt E9PU11); assay: SPR; Biacore 8K, 25 °C, His-tagged protein captured on NTA chip (100-150 RU), analyte proteins without His tag 3-100 nM injected 100 s, dissociation 150 s, HBS-P+ running buffer; both purified
T1 sequence: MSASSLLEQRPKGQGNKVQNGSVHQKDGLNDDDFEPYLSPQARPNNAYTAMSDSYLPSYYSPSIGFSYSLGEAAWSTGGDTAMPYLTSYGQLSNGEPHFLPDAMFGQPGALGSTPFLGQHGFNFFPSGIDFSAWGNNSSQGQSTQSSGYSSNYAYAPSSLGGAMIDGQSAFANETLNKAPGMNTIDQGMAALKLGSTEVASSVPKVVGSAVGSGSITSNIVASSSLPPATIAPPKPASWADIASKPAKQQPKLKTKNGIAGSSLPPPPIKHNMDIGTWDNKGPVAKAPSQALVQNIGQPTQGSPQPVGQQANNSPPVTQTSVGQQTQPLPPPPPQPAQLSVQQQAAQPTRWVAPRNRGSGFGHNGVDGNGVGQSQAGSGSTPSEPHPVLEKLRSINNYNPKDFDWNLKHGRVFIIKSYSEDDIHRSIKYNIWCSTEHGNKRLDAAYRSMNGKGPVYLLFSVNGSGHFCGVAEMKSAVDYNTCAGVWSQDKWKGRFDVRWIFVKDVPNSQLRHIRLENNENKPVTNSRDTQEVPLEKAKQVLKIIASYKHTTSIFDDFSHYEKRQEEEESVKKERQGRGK

[1] = biological target: Nsun4 (rat (endogenous in BMSCs)); assay: co-IP; endogenous proteins immunoprecipitated from rat BMSC lysates (with or without chondrogenic induction) with Nsun4 or Mettl3 antibody and corresponding IgG, Pierce Direct Magnetic IP/Co-IP kit, western blot
His-tagged Mettl3 = assay: SPR; Biacore 8K, 25 °C, His-tagged protein captured on NTA chip (100-150 RU), analyte proteins without His tag 3-100 nM injected 100 s, dissociation 150 s, HBS-P+ running buffer; both purified

binding (His-tagged Ythdf2): binds
Molecule: Nsun4 (His tag cleaved)

binding [1]: binds
B1: Ythdf2 (protein, UniProt E9PU11 1-579)
chain: MSASSLLEQRPKGQGNKVQNGSVHQKDGLNDDDFEPYLSPQARPNNAYTAMSDSYLPSYYSPSIGFSYSLGEAAWSTGGDTAMPYLTSYGQLSNGEPHFLPDAMFGQPGALGSTPFLGQHGFNFFPSGIDFSAWGNNSSQGQSTQSSGYSSNYAYAPSSLGGAMIDGQSAFANETLNKAPGMNTIDQGMAALKLGSTEVASSVPKVVGSAVGSGSITSNIVASSSLPPATIAPPKPASWADIASKPAKQQPKLKTKNGIAGSSLPPPPIKHNMDIGTWDNKGPVAKAPSQALVQNIGQPTQGSPQPVGQQANNSPPVTQTSVGQQTQPLPPPPPQPAQLSVQQQAAQPTRWVAPRNRGSGFGHNGVDGNGVGQSQAGSGSTPSEPHPVLEKLRSINNYNPKDFDWNLKHGRVFIIKSYSEDDIHRSIKYNIWCSTEHGNKRLDAAYRSMNGKGPVYLLFSVNGSGHFCGVAEMKSAVDYNTCAGVWSQDKWKGRFDVRWIFVKDVPNSQLRHIRLENNENKPVTNSRDTQEVPLEKAKQVLKIIASYKHTTSIFDDFSHYEKRQEEEESVKKERQGRGK

binding (His-tagged Mettl3): binds
B2: Ythdf2 (His tag cleaved) (protein, UniProt E9PU11 1-579)
chain: MSASSLLEQRPKGQGNKVQNGSVHQKDGLNDDDFEPYLSPQARPNNAYTAMSDSYLPSYYSPSIGFSYSLGEAAWSTGGDTAMPYLTSYGQLSNGEPHFLPDAMFGQPGALGSTPFLGQHGFNFFPSGIDFSAWGNNSSQGQSTQSSGYSSNYAYAPSSLGGAMIDGQSAFANETLNKAPGMNTIDQGMAALKLGSTEVASSVPKVVGSAVGSGSITSNIVASSSLPPATIAPPKPASWADIASKPAKQQPKLKTKNGIAGSSLPPPPIKHNMDIGTWDNKGPVAKAPSQALVQNIGQPTQGSPQPVGQQANNSPPVTQTSVGQQTQPLPPPPPQPAQLSVQQQAAQPTRWVAPRNRGSGFGHNGVDGNGVGQSQAGSGSTPSEPHPVLEKLRSINNYNPKDFDWNLKHGRVFIIKSYSEDDIHRSIKYNIWCSTEHGNKRLDAAYRSMNGKGPVYLLFSVNGSGHFCGVAEMKSAVDYNTCAGVWSQDKWKGRFDVRWIFVKDVPNSQLRHIRLENNENKPVTNSRDTQEVPLEKAKQVLKIIASYKHTTSIFDDFSHYEKRQEEEESVKKERQGRGK
